PubChem BioAssay AID1259254, NCATS | 2017
This is one part, drawn at random, of about 59,000 reagents. About 1,550 of all reagents (2.6%) were called active. 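G2 share is only a proxy for re-replication; each gene was hit by three separate siRNAs, and active genes were retested.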 Raw values vary from plate to plate and are shown uncorrected. Reagent sequences are not shown. Not stated in the record: the amount of reagent.

Test: 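Gene knock-downs that lead to re-replication, shown by excess G2 DNA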 (primary screen)
Cell system: human HCT116 colorectal cancer cells
Knock-down reagent: single siRNA against human genes
Duration: 3 days
Detection: 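Nuclei stained with Hoechst and imaged; cell-cycle phase assigned by DNA content; G2 share scaled per plate, non-targeting siRNA 0%, GMNN siRNA 100%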
Direction: G2 robust z-score and G2 cells, % of GMNN control: higher = more G2 cells, more excess DNA replication; raw share of cells in G2: higher = larger share of cells with G2 DNA content
Rule for the call: 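Active siRNAs have a G2 robust z of 5 or more median absolute deviations over the median, which in these data means about 38% or higher of GMNN control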

gene knocked down | PubChem SID | G2 robust z-score | G2 cells, % of GMNN control | raw share of cells in G2 (%) | call
DENND5B | SID160759785 | 7.26 | 54 | 23 | active
DENND5B | SID160759787 | 2.62 | 21.4 | 10.1 | inactive
DENND5B | SID160759788 | 0.308 | 5.13 | 4.39 | inactive
DPF2 | SID160715802 | -1.22 | -5.61 | 2.28 | inactive
DPF2 | SID160715803 | 2.47 | 20.3 | 12 | inactive
DPF2 | SID160715804 | 1.68 | 14.8 | 10.3 | inactive
ARG2 | SID160719725 | -0.0809 | 2.4 | 5.54 | inactive
ARG2 | SID160719736 | -0.465 | -0.301 | 3.88 | inactive
ARG2 | SID160719746 | 1.67 | 14.7 | 10.3 | inactive
ANKRD13B | SID160756269 | 0.0157 | 3.08 | 5.33 | inactive
ANKRD13B | SID160756270 | 0.0722 | 3.48 | 4.37 | inactive
ANKRD13B | SID160756271 | -0.737 | -2.22 | 1.17 | inactive
OR51I2 | SID160733250 | 1.31 | 12.2 | 9.85 | inactive
OR51I2 | SID160766355 | 0.582 | 7.06 | 6.19 | inactive
OR51I2 | SID160766356 | 0.231 | 4.59 | 5.4 | inactive
NFIL3 | SID160778012 | -0.0508 | 2.61 | 4.5 | inactive
NFIL3 | SID160778013 | 1.85 | 16 | 12.3 | inactive
NFIL3 | SID160778016 | 0.136 | 3.93 | 4.53 | inactive
MPC1 | SID160733518 | 1.92 | 16.4 | 8.63 | inactive
MPC1 | SID160741173 | 1.64 | 14.5 | 8.8 | inactive
MPC1 | SID160741175 | -0.623 | -1.42 | 3.67 | inactive
EBLN1 | SID160764499 | -0.0978 | 2.28 | 4.77 | inactive
EBLN1 | SID160764500 | 2.01 | 17.1 | 10.7 | inactive
EBLN1 | SID160764501 | -0.138 | 2 | 4.99 | inactive
P2RX3 | SID160778487 | 1.14 | 11 | 9.28 | inactive
P2RX3 | SID160778488 | -0.135 | 2.02 | 5.46 | inactive
P2RX3 | SID160778489 | -0.646 | -1.58 | 3.76 | inactive

Part of the list above, set out differently.
{"gene knocked down":"ARG2","PubChem SID":"SID160719725","G2 robust z-score":-0.0809,"G2 cells, % of GMNN control":2.4,"raw share of cells in G2 (%)":5.54,"call":"inactive"}
{"gene knocked down":"ARG2","PubChem SID":"SID160719736","G2 robust z-score":-0.465,"G2 cells, % of GMNN control":-0.301,"raw share of cells in G2 (%)":3.88,"call":"inactive"}
{"gene knocked down":"ARG2","PubChem SID":"SID160719746","G2 robust z-score":1.67,"G2 cells, % of GMNN control":14.7,"raw share of cells in G2 (%)":10.3,"call":"inactive"}
{"gene knocked down":"ANKRD13B","PubChem SID":"SID160756269","G2 robust z-score":0.0157,"G2 cells, % of GMNN control":3.08,"raw share of cells in G2 (%)":5.33,"call":"inactive"}
{"gene knocked down":"ANKRD13B","PubChem SID":"SID160756270","G2 robust z-score":0.0722,"G2 cells, % of GMNN control":3.48,"raw share of cells in G2 (%)":4.37,"call":"inactive"}
{"gene knocked down":"ANKRD13B","PubChem SID":"SID160756271","G2 robust z-score":-0.737,"G2 cells, % of GMNN control":-2.22,"raw share of cells in G2 (%)":1.17,"call":"inactive"}
{"gene knocked down":"OR51I2","PubChem SID":"SID160733250","G2 robust z-score":1.31,"G2 cells, % of GMNN control":12.2,"raw share of cells in G2 (%)":9.85,"call":"inactive"}

More results follow:
gene knocked down | PubChem SID | G2 robust z-score | G2 cells, % of GMNN control | raw share of cells in G2 (%) | call
SPANXN1 | SID160733466 | -0.0437 | 2.66 | 4.02 | inactive
SPANXN1 | SID160768264 | -0.0423 | 2.67 | 4.65 | inactive
SPANXN1 | SID160768265 | 3.53 | 27.8 | 14 | inactive
FBN2 | SID160764167 | 1.12 | 10.8 | 9.17 | inactive
FBN2 | SID160764177 | -0.681 | -1.82 | 4.57 | inactive
FBN2 | SID160764186 | -0.0656 | 2.51 | 4.55 | inactive
DHPS | SID160730709 | 0.158 | 4.08 | 6.48 | inactive
DHPS | SID160777701 | -0.0252 | 2.79 | 5.96 | inactive
DHPS | SID160777809 | -1.26 | -5.89 | 2.07 | inactive
CELSR3 | SID160758743 | 0.899 | 9.29 | 9.16 | inactive
CELSR3 | SID160758753 | 0.497 | 6.46 | 6.78 | inactive
CELSR3 | SID160758763 | 0.569 | 6.97 | 5.41 | inactive
AKAP14 | SID160759688 | -1.52 | -7.72 | 3.19 | inactive
AKAP14 | SID160759689 | 1.77 | 15.4 | 10.8 | inactive
AKAP14 | SID160759690 | -0.905 | -3.4 | 2.59 | inactive
OR2F2 | SID160757446 | 1.06 | 10.4 | 8.1 | inactive
OR2F2 | SID160757447 | -0.197 | 1.58 | 3.6 | inactive
OR2F2 | SID160757449 | -0.34 | 0.578 | 2.79 | inactive
DBF4P1 | SID160769427 | 0.297 | 5.06 | 5.56 | inactive
DBF4P1 | SID160769428 | 1.07 | 10.5 | 7.04 | inactive
DBF4P1 | SID160769429 | 1.1 | 10.7 | 6.27 | inactive
